Measurements reported in PubChem BioAssay AID652243 (Drosophila RNAi Screening Center, 2013)

- Purpose: 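Fly regulators of androgen-dependent reporter output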 (primary screen)
- Cell system: Drosophila S2R+ cells
- Knock-down reagent: long dsRNA against Drosophila genes
- Duration: 72 h (48 h, then 24 h hormone)
- Treatment: synthetic androgen R1881 at 10 nM for 24 h
- Measured: 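Per-well raw luminescence of the androgen-driven firefly reporter and of the Renilla control, two replicates each, without normalisation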
- Direction: firefly reporter light: higher = more light from androgen-responsive reporter; Renilla control light: higher = more constitutive control signal (cell number, transfection)
- Call rule: 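Hit when the log firefly-to-Renilla ratio dropped or increased by a fixed fold versus the mean of GFP or LacZ controls across duplicate plates; lowering cut given as 1.5 and as 3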
- Calls: active = hit: reporter lowered or raised; inactive = no hit
In all, the deposit lists about 24,000 reagents; this is an unselected part of those with a known target gene and a result. In the full data, 246 (1%) were called active. 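Plates not normalised; calls are printed but the firefly/Renilla ratio behind them is not deposited; fold cut for lowering reported inconsistently.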 Raw values are not corrected between plates. The numbers tell different reagents against one gene apart. Reagent sequences are not shown. Not stated in the record: the amount of reagent.

After knock-down of rin (GeneID 47998), the record shows firefly reporter light, replicate 1 = 6.07e5; firefly reporter light, replicate 2 = 8.00e5; Renilla control light, replicate 1 = 1.30e6; Renilla control light, replicate 2 = 1.34e6; inactive.
Depletion of knrl (GeneID 40285) #1 gave: firefly reporter light, replicate 1 = 8.44e5; firefly reporter light, replicate 2 = 8.11e5; Renilla control light, replicate 1 = 1.30e6; Renilla control light, replicate 2 = 1.07e6; inactive.
After knock-down of knrl (GeneID 40285) #2, the screen gave firefly reporter light, replicate 1 = 4.31e5; firefly reporter light, replicate 2 = 7.75e5; Renilla control light, replicate 1 = 1.68e6; Renilla control light, replicate 2 = 2.59e6; inactive.
Against VAChT (GeneID 42795) #1, the entry reads firefly reporter light, replicate 1 = 1.41e5; firefly reporter light, replicate 2 = 1.43e5; Renilla control light, replicate 1 = 2.01e5; Renilla control light, replicate 2 = 3.11e5; inactive.
VAChT (GeneID 42795) #2 gave firefly reporter light, replicate 1 = 27581; firefly reporter light, replicate 2 = 26093; Renilla control light, replicate 1 = 3.51e5; Renilla control light, replicate 2 = 4.08e5; inactive.
For VAChT (GeneID 42795) #3, the values are firefly reporter light, replicate 1 = 4.39e5; firefly reporter light, replicate 2 = 2.97e5; Renilla control light, replicate 1 = 1.12e6; Renilla control light, replicate 2 = 5.37e5; inactive.
Silencing of acj6 (GeneID 47080) #1 gave: firefly reporter light, replicate 1 = 1.18e5; firefly reporter light, replicate 2 = 1.33e5; Renilla control light, replicate 1 = 9.15e5; Renilla control light, replicate 2 = 7.09e5; inactive.
Knock-down of acj6 (GeneID 47080) #2 came out at: firefly reporter light, replicate 1 = 4.60e5; firefly reporter light, replicate 2 = 4.40e5; Renilla control light, replicate 1 = 1.14e6; Renilla control light, replicate 2 = 1.27e6; inactive.
After knock-down of acj6 (GeneID 47080) #3, the record shows inactive.
CG7294 (GeneID 34470) #1 showed firefly reporter light, replicate 1 = 1.70e5; firefly reporter light, replicate 2 = 1.88e5; Renilla control light, replicate 1 = 1.31e6; Renilla control light, replicate 2 = 1.30e6; inactive.
Against CG7294 (GeneID 34470) #2 the deposit lists firefly reporter light, replicate 1 = 1.07e6; firefly reporter light, replicate 2 = 1.23e6; Renilla control light, replicate 1 = 1.20e6; Renilla control light, replicate 2 = 1.11e6; inactive.
With knock-down of CG7582 (GeneID 43492) the results were firefly reporter light, replicate 1 = 2.00e5; firefly reporter light, replicate 2 = 2.36e5; Renilla control light, replicate 1 = 1.94e6; Renilla control light, replicate 2 = 2.34e6; inactive.
After knock-down of CG12589 (GeneID 50157), the record shows firefly reporter light, replicate 1 = 68291; firefly reporter light, replicate 2 = 66362; Renilla control light, replicate 1 = 1.98e6; Renilla control light, replicate 2 = 1.45e6; inactive.
Against pcs (GeneID 36674) the deposit lists firefly reporter light, replicate 1 = 6.25e5; firefly reporter light, replicate 2 = 8.03e5; Renilla control light, replicate 1 = 1.80e6; Renilla control light, replicate 2 = 2.16e6; inactive.
After knock-down of NAT1 (GeneID 46020) #1, the record shows firefly reporter light, replicate 1 = 1.18e6; firefly reporter light, replicate 2 = 1.20e6; Renilla control light, replicate 1 = 1.08e6; Renilla control light, replicate 2 = 6.68e5; inactive.
Depletion of NAT1 (GeneID 46020) #2 resulted in: firefly reporter light, replicate 1 = 9.38e5; firefly reporter light, replicate 2 = 6.51e5; Renilla control light, replicate 1 = 5.88e5; Renilla control light, replicate 2 = 3.47e5; inactive.
After knock-down of Vm26Ab (GeneID 33827) #1 the results were firefly reporter light, replicate 1 = 6.10e5; firefly reporter light, replicate 2 = 5.53e5; Renilla control light, replicate 1 = 2.85e6; Renilla control light, replicate 2 = 2.50e6; inactive.
After knock-down of Vm26Ab (GeneID 33827) #2, the record shows firefly reporter light, replicate 1 = 6.20e5; firefly reporter light, replicate 2 = 4.04e5; Renilla control light, replicate 1 = 1.87e6; Renilla control light, replicate 2 = 9.09e5; inactive.
nuf (GeneID 39572) #1 showed firefly reporter light, replicate 1 = 1.32e5; firefly reporter light, replicate 2 = 1.10e5; Renilla control light, replicate 1 = 1.29e6; Renilla control light, replicate 2 = 1.00e6; inactive.
After knock-down of nuf (GeneID 39572) #2 the results were firefly reporter light, replicate 1 = 1.13e6; firefly reporter light, replicate 2 = 7.45e5; Renilla control light, replicate 1 = 2.92e6; Renilla control light, replicate 2 = 2.15e6; inactive.
For nuf (GeneID 39572) #3, the values are firefly reporter light, replicate 1 = 3.36e5; firefly reporter light, replicate 2 = 3.28e5; Renilla control light, replicate 1 = 7.01e5; Renilla control light, replicate 2 = 7.02e5; inactive.
nuf (GeneID 39572) #4 showed firefly reporter light, replicate 1 = 3.92e5; firefly reporter light, replicate 2 = 3.56e5; Renilla control light, replicate 1 = 1.14e6; Renilla control light, replicate 2 = 1.08e6; inactive.
Silencing of N (GeneID 31293) #1 came out at: firefly reporter light, replicate 1 = 2.96e5; firefly reporter light, replicate 2 = 2.17e5; Renilla control light, replicate 1 = 3.69e6; Renilla control light, replicate 2 = 2.14e6; inactive.
Depletion of N (GeneID 31293) #2 resulted in: firefly reporter light, replicate 1 = 4.25e5; firefly reporter light, replicate 2 = 5.21e5; Renilla control light, replicate 1 = 1.57e6; Renilla control light, replicate 2 = 1.97e6; inactive.
With knock-down of CCT4 (GeneID 34674) #1 the results were firefly reporter light, replicate 1 = 1.32e5; firefly reporter light, replicate 2 = 1.82e5; Renilla control light, replicate 1 = 1.82e6; Renilla control light, replicate 2 = 1.69e6; inactive.
For CCT4 (GeneID 34674) #2 the deposit lists firefly reporter light, replicate 1 = 3.42e5; firefly reporter light, replicate 2 = 4.08e5; Renilla control light, replicate 1 = 7.78e5; Renilla control light, replicate 2 = 8.48e5; inactive.
Against CG34132 (GeneID 4379884), the values are firefly reporter light, replicate 1 = 1.69e5; firefly reporter light, replicate 2 = 5.46e5; Renilla control light, replicate 1 = 7.85e5; Renilla control light, replicate 2 = 2.05e6; inactive.
